This passage reports binding results from paper doi:10.1101/2024.01.22.576669.

The target in this assay is T1, POU2AF1 (human (endogenous in MM.1S)) (UniProt Q16633).
T1 sequence: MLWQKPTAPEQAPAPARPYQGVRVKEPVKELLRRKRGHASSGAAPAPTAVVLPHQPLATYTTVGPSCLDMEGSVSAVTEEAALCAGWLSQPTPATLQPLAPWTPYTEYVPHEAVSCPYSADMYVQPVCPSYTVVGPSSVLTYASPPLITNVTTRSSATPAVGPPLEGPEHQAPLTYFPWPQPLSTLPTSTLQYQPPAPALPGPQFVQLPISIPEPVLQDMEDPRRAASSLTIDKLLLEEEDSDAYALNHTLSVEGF
The experiment in a line: affinity purification with mass spectrometry; RIME of POU2AF1 in MM.1S cells: 40 x 10^6 cells cross-linked 8 min in 1% formaldehyde, nuclear lysates sonicated to 200-600 bp chromatin fragments, immunoprecipitation with 20 ug antibody pre-bound to beads overnight at 4 °C, TMT labelling, LC-MS/MS.

These are yes or no findings as the source states them, for the method shown. Binding seen in cells or lysates may run through a third protein. These calls come from enrichment with a bait or labelling near it, and not all partners need be listed.

B1: IRF4 (protein, UniProt Q15306 1-451)
chain: MNLEGGGRGGEFGMSAVSCGNGKLRQWLIDQIDSGKYPGLVWENEEKSIFRIPWKHAGKQDYNREEDAALFKAWALFKGKFREGIDKPDPPTWKTRLRCALNKSNDFEELVERSQLDISDPYKVYRIVPEGAKKGAKQLTLEDPQMSMSHPYTMTTPYPSLPAQQVHNYMMPPLDRSWRDYVPDQPHPEIPYQCPMTFGPRGHHWQGPACENGCQVTGTFYACAPPESQAPGVPTEPSIRSAEALAFSDCRLHICLYYREILVKELTTSSPEGCRISHGHTYDASNLDQVLFPYPEDNGQRKNIEKLLSHLERGVVLWMAPDGLYAKRLCQSRIYWDGPLALCNDRPNKLERDQTCKLFDTQQFLSELQAFAHHGRSLPRFQVTLCFGEEFPDPQRQRKLITAHVEPLLARQLYYFAQQNSGHFLRGYDLPEHISNPEDYHRSIRHSSIQE
Consider B1, for which the binding result was “binds”.
